Measured values published in the supplement of paper PMC10849652.
Some of the results follow. Residues, ends and D or L forms follow the SMILES beside them. *: point of attachment. Cbz = O=C(OCc1ccccc1)*

The chains behind the UniProt entries cited, without tags or fusion partners. Where a name states a change or a piece, a line headed by the entry shows the natural chain unless it says otherwise.
UniProt Q03169: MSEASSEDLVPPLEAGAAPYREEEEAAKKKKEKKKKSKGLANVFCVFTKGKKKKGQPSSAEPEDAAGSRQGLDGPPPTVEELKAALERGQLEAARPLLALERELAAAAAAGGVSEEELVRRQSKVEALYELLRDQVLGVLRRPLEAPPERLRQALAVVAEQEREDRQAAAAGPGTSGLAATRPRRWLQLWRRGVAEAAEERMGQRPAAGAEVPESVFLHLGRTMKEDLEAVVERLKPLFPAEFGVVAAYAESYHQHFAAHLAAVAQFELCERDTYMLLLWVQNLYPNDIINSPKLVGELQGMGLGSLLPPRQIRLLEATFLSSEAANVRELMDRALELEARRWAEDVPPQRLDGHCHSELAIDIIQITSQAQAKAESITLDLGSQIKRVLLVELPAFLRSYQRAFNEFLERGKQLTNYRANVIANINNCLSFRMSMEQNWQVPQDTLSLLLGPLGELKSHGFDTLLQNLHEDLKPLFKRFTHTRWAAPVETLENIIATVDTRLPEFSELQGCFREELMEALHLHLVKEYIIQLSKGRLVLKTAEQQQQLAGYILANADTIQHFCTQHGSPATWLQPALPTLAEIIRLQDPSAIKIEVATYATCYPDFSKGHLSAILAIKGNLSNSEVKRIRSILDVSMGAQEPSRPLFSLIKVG
UniProt Q6UWJ1: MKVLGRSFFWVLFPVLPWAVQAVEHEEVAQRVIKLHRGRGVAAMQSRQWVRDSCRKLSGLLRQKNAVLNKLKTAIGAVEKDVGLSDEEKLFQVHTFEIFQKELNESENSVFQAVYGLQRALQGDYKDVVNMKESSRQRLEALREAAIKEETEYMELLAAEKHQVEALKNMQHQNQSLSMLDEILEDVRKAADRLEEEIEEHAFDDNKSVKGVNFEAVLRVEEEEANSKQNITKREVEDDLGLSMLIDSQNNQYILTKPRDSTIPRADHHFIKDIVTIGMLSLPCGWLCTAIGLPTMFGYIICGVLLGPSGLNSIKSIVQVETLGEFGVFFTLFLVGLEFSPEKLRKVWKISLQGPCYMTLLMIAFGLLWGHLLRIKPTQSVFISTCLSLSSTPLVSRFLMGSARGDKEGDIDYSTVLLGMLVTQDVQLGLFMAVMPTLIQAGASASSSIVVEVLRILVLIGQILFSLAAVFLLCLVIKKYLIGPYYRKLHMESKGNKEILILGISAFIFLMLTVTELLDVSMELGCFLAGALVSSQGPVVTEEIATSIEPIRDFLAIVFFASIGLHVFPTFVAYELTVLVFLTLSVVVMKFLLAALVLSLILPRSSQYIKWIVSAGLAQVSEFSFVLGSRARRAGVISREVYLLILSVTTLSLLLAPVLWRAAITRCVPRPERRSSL
UniProt Q96B96: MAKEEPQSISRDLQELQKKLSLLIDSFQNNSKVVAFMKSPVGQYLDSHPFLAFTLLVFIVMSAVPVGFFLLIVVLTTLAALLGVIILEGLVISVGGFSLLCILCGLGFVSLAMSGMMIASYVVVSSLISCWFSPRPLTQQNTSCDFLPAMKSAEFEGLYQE
UniProt P62328: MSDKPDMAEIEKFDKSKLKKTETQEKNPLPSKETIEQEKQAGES
UniProt Q2T9K0: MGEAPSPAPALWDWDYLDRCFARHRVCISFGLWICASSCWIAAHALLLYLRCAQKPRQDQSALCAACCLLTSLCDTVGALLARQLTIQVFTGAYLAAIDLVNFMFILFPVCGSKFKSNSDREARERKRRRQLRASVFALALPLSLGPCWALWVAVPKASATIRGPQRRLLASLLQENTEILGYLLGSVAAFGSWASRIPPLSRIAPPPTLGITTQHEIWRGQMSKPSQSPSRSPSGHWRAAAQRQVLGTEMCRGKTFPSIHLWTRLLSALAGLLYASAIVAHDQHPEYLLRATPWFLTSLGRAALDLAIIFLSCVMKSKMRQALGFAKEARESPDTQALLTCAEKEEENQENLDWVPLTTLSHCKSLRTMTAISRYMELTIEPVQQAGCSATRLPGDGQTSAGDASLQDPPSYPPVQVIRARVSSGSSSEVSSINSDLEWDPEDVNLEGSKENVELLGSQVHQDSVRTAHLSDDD
UniProt Q9ULS5: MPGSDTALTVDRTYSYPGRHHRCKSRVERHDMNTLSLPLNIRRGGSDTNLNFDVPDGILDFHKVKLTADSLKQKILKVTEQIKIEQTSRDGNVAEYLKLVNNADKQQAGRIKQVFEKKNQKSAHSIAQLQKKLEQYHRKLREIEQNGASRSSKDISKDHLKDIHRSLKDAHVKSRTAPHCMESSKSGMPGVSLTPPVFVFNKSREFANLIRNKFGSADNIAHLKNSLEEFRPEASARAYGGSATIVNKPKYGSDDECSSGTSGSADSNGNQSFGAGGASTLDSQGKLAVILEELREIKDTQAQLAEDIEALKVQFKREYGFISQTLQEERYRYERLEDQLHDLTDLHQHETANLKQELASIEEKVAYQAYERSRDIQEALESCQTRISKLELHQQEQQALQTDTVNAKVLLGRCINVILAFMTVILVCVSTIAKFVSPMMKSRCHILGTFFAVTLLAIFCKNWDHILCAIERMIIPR
UniProt Q96Q45: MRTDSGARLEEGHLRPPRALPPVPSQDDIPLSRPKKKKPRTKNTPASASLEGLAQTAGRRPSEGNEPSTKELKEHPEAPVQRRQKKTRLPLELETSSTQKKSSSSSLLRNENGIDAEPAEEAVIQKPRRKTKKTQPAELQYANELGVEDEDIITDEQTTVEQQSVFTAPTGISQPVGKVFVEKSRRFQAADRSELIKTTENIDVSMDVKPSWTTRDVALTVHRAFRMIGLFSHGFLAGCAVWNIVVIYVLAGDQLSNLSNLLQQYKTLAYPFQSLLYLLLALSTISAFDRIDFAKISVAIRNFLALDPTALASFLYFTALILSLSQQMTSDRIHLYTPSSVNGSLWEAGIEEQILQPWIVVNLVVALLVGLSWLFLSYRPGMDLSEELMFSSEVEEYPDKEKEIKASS
UniProt Q96AN5: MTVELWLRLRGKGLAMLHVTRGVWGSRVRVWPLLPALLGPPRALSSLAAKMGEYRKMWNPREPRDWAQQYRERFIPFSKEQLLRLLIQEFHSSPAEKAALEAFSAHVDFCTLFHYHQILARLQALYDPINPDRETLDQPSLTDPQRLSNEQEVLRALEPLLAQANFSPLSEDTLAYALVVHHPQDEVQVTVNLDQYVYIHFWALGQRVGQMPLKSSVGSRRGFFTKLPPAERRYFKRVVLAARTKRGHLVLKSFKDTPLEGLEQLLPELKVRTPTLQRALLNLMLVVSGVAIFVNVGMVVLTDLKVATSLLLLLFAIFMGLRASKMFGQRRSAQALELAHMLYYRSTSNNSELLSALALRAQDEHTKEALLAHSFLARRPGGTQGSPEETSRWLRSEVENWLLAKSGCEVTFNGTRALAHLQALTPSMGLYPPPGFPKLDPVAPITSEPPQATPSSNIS
UniProt O75204: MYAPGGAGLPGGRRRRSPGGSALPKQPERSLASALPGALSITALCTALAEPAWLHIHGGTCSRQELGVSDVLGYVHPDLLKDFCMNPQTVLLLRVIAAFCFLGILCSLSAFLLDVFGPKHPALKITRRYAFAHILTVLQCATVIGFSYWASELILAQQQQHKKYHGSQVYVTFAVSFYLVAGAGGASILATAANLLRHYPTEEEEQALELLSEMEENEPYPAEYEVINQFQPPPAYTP
UniProt Q9Y519: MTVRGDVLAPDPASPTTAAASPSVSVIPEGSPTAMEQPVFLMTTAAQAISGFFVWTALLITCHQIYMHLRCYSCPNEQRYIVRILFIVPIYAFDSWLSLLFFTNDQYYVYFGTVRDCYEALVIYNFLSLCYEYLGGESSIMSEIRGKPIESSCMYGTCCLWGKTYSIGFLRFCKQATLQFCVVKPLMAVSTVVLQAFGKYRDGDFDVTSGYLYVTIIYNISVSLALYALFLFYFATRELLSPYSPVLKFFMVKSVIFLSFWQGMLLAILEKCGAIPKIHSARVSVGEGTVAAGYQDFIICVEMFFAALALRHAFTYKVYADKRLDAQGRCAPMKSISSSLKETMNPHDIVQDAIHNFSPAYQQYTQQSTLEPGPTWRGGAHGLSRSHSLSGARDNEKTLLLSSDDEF
UniProt Q5T4D3: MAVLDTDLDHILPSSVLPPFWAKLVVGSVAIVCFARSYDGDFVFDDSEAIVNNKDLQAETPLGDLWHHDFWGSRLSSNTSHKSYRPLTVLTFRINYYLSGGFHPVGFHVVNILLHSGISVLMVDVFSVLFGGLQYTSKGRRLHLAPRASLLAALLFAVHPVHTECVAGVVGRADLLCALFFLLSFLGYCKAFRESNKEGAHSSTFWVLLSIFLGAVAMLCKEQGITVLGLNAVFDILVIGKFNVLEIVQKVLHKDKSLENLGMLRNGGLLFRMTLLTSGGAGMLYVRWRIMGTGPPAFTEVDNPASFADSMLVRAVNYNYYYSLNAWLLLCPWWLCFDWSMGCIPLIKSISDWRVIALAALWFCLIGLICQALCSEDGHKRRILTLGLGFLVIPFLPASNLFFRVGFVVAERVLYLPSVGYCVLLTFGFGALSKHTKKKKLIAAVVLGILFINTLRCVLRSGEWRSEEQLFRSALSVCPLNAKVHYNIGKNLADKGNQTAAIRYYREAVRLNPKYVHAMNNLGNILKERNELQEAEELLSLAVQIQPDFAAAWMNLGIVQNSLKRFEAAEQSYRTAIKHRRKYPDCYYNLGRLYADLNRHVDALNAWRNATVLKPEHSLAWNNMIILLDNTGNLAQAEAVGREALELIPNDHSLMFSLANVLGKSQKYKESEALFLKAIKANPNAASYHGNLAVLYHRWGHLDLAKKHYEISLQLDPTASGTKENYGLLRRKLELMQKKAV
UniProt O94876, whole entry, looked up: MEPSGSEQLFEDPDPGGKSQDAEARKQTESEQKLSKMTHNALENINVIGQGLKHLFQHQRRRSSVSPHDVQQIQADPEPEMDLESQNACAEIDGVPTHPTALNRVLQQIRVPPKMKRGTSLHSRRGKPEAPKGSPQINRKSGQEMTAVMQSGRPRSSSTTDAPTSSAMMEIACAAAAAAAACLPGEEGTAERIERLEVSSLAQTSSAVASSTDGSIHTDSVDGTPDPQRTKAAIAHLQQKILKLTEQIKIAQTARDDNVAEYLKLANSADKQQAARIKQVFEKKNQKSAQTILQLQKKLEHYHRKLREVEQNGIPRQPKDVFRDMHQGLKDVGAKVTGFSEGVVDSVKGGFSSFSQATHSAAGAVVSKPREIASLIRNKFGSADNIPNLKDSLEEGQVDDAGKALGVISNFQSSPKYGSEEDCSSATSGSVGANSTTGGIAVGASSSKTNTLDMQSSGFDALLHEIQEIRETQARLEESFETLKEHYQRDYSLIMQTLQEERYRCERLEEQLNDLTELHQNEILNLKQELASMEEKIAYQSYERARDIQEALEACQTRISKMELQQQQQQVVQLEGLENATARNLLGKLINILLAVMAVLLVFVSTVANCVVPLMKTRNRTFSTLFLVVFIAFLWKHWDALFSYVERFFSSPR
UniProt Q9NVA4: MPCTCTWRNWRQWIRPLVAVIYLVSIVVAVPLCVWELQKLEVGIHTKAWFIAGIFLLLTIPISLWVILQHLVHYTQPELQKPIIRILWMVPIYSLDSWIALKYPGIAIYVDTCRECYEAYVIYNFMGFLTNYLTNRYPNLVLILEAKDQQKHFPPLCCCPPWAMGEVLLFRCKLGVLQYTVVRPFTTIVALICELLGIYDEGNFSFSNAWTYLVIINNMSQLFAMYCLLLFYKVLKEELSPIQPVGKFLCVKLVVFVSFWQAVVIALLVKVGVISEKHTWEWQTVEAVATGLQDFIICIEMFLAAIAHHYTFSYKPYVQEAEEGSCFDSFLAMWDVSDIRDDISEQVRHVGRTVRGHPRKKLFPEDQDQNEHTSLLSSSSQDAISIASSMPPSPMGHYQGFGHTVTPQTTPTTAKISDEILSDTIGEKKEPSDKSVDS
UniProt Q96DC7: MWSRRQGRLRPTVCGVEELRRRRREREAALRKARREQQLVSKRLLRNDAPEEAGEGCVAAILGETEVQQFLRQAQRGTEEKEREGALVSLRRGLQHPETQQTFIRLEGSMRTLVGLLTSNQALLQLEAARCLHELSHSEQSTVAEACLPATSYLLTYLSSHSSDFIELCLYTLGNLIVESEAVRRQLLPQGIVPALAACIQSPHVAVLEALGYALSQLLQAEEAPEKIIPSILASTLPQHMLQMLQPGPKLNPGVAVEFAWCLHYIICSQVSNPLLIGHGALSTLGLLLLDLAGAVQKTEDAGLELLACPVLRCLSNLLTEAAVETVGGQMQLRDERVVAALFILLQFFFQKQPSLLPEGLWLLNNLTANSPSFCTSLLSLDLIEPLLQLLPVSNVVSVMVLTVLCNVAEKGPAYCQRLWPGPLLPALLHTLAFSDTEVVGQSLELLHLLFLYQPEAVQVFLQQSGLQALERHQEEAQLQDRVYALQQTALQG
UniProt Q6UW68: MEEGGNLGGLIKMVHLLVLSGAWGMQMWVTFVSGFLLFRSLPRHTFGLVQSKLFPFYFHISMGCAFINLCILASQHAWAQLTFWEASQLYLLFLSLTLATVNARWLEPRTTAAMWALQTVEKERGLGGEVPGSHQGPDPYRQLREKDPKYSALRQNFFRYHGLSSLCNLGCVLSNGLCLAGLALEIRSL

Legend:
Assay in all cases: log2 fold change, soluble protein after heating vs DMSO (PISA); higher = thermal stabilisation; K562 cells, 10 uM, 30 min; active = over 0.2 and 3.5 SD of the protein, either way, in both replicates (recomputed)
[1] = compound: C/C(=N\NC(=O)C1=CC(=CC=C1)S(=O)(=O)N2CCOCC2)/C3=C(C=CC(=C3)Cl)O
Summary of the method: (§1)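 Soluble protein was defined as the supernatant after 21,000xg for 90 min. It came from K562 cells at 2×10^6 cells/mL given 10 μM compound for 30 min, heated in aliquots for 3 min across 48°C-58°C, pooled, and extracted in PBS with 0.5% NP-40 at 4°C, and was quantified by TMTpro 16plex LC-MS/MS with equalised channel sums. Thermal stability against control samples, from duplicates, is reported as log2 fold change.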

[2] = compound: C1=CC2=C(C=CC(=C2)/C=C\3/C(=O)NC(=NCC4=CC=CS4)S3)N=C1
Summary of the method: as §1

[3] = compound: C1=CC=C2C(=C1)C3=NNC4=CC=CC(=C43)C2=O
Summary of the method: as §1

[4] = compound: CC(=O)c1cnc2ccc(-c3cc(Cl)c(O)c(Cl)c3)nc2c1N[C@H]1CC[C@H](CN(C)C)CC1
Summary of the method: as §1

[5] = compound: CC1=C(C(CC(=O)N1)C2=CC=C(C=C2)C(F)(F)F)C(=O)NC3=C(C=C4C(=C3)C=NN4)F
Summary of the method: as §1

erlotinib = compound: C#Cc1cccc(Nc2ncnc3cc(OCCOC)c(OCCOC)cc23)c1 [erlotinib]
Summary of the method: as §1

[6] = compound: C1=CC(=CC=C1C2=NC3=C(N2)C=C(C=C3)C(=O)N)OC4=CC=C(C=C4)Cl
Summary of the method: as §1

[7] = compound: C1=CC2=NC=CN=C2C=C1/C=C/3\C(=O)NC(=O)S3
Summary of the method: as §1

[8] = compound: C1=CC=C(C=C1)C2=NC(=C(N2)C3=CC=NC=C3)C4=CC(=C(C=C4)Cl)O
Summary of the method: as §1

[9] = compound: C1CCN(C1)C(=O)NC2=CC=CC(=C2)NC3=NC=C(C(=N3)NCCC4=CN=CN4)Br
Summary of the method: as §1

[10] = compound: C1CN(CCC1(CC2=CC=C(C=C2)Cl)N)C3=NC=NC4=C3C=CN4
Summary of the method: as §1

IRAK-1-4 Inhibitor I = compound: C1COCCN1CCN2C3=CC=CC=C3N=C2NC(=O)C4=CC(=CC=C4)[N+](=O)[O-] [IRAK-1-4 Inhibitor I]
Summary of the method: as §1

ibrutinib = compound: C=CC(=O)N1CCC[C@@H](n2nc(-c3ccc(Oc4ccccc4)cc3)c3c(N)ncnc32)C1 [ibrutinib]
Summary of the method: as §1

ralimetinib = compound: CC(C)(C)Cn1c(N)nc2ccc(-c3[nH]c(C(C)(C)C)nc3-c3ccc(F)cc3)nc21 [ralimetinib]
Summary of the method: as §1

[11] = compound: CC(C)C1=C2N=C(C=C(N2N=C1)NCC3=CC=CC=C3)NCCCCCCN
Summary of the method: as §1

[12] = compound: CC(C)C[C@@H](C=O)NC(=O)[C@H](CC(C)C)NC(=O)[C@H](CC(C)C)NC(=O)OCc1ccccc1
Summary of the method: as §1

pinometostat = compound: CC(C)N(C[C@H]1O[C@@H](n2cnc3c(N)ncnc32)[C@H](O)[C@@H]1O)[C@H]1C[C@@H](CCc2nc3cc(C(C)(C)C)ccc3[nH]2)C1 [pinometostat]
Summary of the method: as §1

[13] = compound: CC1=C(C2=C(C=C1)C(=O)C3=CC=CC=C3N2CCCN)C
Summary of the method: as §1

[14] = compound: C1=CC(=C(C=C1Cl)C2=NC3=NC=CN=C3C(=N2)NC4=CC=NC=C4)F
Summary of the method: as §1

[15] = compound: CC(C)(O)CC(=O)NCCn1ccc2ncnc(Nc3ccc(Oc4cccc(C(F)(F)F)c4)c(Cl)c3)c21
Summary of the method: as §1

Measured: log2 fold change

TMCC2 (UniProt O75069)
inactive: [1] -0.254 | [2] 0.081 | [3] 0.07 | [4] -0.064 | [5] 0.159

TMEM167B (UniProt Q9NRX6)
inactive: erlotinib 0.099 | [6] 0.014 | [7] 0.057 | [8] -0.036 | [9] -0.058 | [10] 0.067 | IRAK-1-4 Inhibitor I 0.038 | ibrutinib 0.018 | ralimetinib -0.05 | [11] 0.049 | [12] 0.035 | pinometostat 0.05 | [5] -0.005 | [13] -0.069

TMEM94 isoform 2 (UniProt Q12767)
inactive: erlotinib 0.206 | [1] 0.026 | [6] -0.04 | [2] 0.025 | [3] -0.131 | [4] -0.216 | [11] 0.096

TNFAIP2 (UniProt Q03169)
inactive: erlotinib 0.325 | [6] -0.02 | [7] -0.059 | [9] 0.024 | [10] 0.14 | ibrutinib 0.123 | [11] 0.188 | [5] -0.003 | [13] -0.021

TMEM50A (UniProt O95807)
inactive: [1] 0.052 | [14] -0.013 | [2] 0.129 | [7] 0.024 | [3] -0.145 | [9] 0.078 | [10] 0.228 | IRAK-1-4 Inhibitor I 0.161 | ibrutinib -0.148 | [4] -0.226 | [15] -0.121 | pinometostat 0.03 | [5] 0.081 | [13] -0.093

TMCO3 (UniProt Q6UWJ1)
inactive: [14] -0.001 | [8] 0.139 | ralimetinib 0.045 | [15] 0.02 | [12] -0.091

TMEM159 isoform 2 (UniProt Q96B96)
inactive: erlotinib 0.007 | [14] -0.115 | [6] 0.048 | [7] -0.094 | [9] -0.193 | [10] 0.016 | ibrutinib -0.143 | [15] -0.034 | [11] 0.126 | [5] 0.047 | [13] 0.103

TMPO (UniProt G5E972)
inactive: erlotinib 0.03 | [6] -0.163 | [11] 0.097

TMSB4X (UniProt P62328)
inactive: [1] -0.374 | [14] -0.588 | [2] -0.181 | [7] -0.388 | [8] 0.112 | [3] 0.572 | IRAK-1-4 Inhibitor I 0.322 | ibrutinib 0.46 | [4] -0.032 | ralimetinib 0.06 | [15] 0.162 | [12] 0.77 | pinometostat 0.03 | [5] 0.45

TMEM175 (UniProt Q9BSA9)
inactive: erlotinib -0.045 | [1] 0.297 | [6] 0.042 | [2] -0.019 | [3] 0.508 | [9] 0.003 | [10] -0.032 | [4] -0.154 | [11] -0.051 | [13] 0.263

TMEM44 (UniProt Q2T9K0)
inactive: erlotinib 0.005 | [6] 0.128 | IRAK-1-4 Inhibitor I 0.152 | [11] -0.014 | pinometostat 0.01 | [5] 0.06

TLR4 (UniProt O00206)
inactive: erlotinib 0.22 | [6] 0.168 | [7] -0.019 | [8] 0.051 | [9] -0.066 | [10] 0.079 | ibrutinib 0.034 | ralimetinib 0.097 | [11] 0.205 | [12] -0.025 | [13] 0.037

TMEM106C (UniProt Q9BVX2)
inactive: erlotinib -0.045 | [6] -0.124 | [7] -0.041 | ibrutinib 0.213 | [11] 0.052 | [5] 0.244

TMEM131 (UniProt Q92545)
inactive: erlotinib 0.037 | [1] -0.078 | [6] 0.068 | [2] -0.052 | [3] -0.05 | [9] 0.125 | [10] -0.12 | [4] 0 | [11] 0.03 | [13] 0.102

TMEM59 (UniProt Q9BXS4)
inactive: erlotinib -0.196 | [1] 0.013 | [6] 0.076 | [2] -0.013 | [8] 0.196 | [3] -0.01 | [9] -0.008 | [10] -0.096 | IRAK-1-4 Inhibitor I -0.078 | [4] -0.144 | ralimetinib 0.027 | [11] 0.315 | [12] 0.272 | pinometostat -0.151 | [5] 0.009 | [13] -0.071

TMCC3 (UniProt Q9ULS5)
inactive: [7] 0.08 | [8] 0.122 | ibrutinib -0.188 | ralimetinib -0.064 | [12] -0.13 | [5] -0.089

TLNRD1 (UniProt Q9H1K6)
inactive: [9] -0.1 | [10] -0.042 | [13] -0.009

TMEM237 isoform 3 (UniProt Q96Q45)
inactive: erlotinib -0.126 | [14] 0.132 | [6] 0.02 | [9] -0.073 | [10] 0.227 | [15] -0.17 | [11] 0.112 | [13] -0.183

TLE5 isoform 2 (UniProt Q08117)
inactive: [1] 0.018 | [2] 0.032 | [8] 0.016 | [3] 0.089 | [4] -0.052 | ralimetinib -0.083 | [12] -0.062 | [5] -0.036

TMEM8A (UniProt Q9HCN3)
inactive: erlotinib 0.046 | [6] -0.001 | [7] 0.02 | [8] 0.124 | [9] -0.014 | [10] 0.011 | ibrutinib 0.06 | ralimetinib -0.131 | [12] -0.036 | [13] 0.044
active: [11] -0.445

TMEM143 (UniProt Q96AN5)
inactive: erlotinib -0.206 | [1] -0.114 | [6] -0.007 | [2] -0.092 | [3] -0.03 | [9] 0.024 | [10] 0.161 | IRAK-1-4 Inhibitor I -0.094 | [4] -0.035 | [11] 0.097 | pinometostat 0.205 | [13] 0.129

TMEM127 (UniProt O75204)
inactive: erlotinib -0.09 | [1] 0.008 | [6] 0.079 | [2] 0.175 | [3] 0.034 | [9] 0.081 | [10] 0.133 | [4] -0.101 | [11] -0.184 | [5] -0.088 | [13] -0.003

TMEM184B (UniProt Q9Y519)
inactive: erlotinib 0.081 | [6] 0.055 | [7] 0.114 | [9] -0.134 | [10] -0.139 | ibrutinib 0.056 | [11] -0.226 | [5] 0.063 | [13] 0.065

TMEM260 (UniProt Q9NX78)
inactive: erlotinib 0.131 | [1] -0.072 | [6] 0.047 | [2] -0.051 | [3] -0.091 | [9] -0.031 | [10] 0.008 | IRAK-1-4 Inhibitor I -0.068 | [4] 0.084 | [11] 0.169 | pinometostat -0.03 | [13] -0.034

TM7SF2 (UniProt O76062)
inactive: erlotinib -0.012 | [6] -0.05 | [8] -0.151 | ralimetinib -0.106 | [11] -0.124 | [12] -0.01

TNFRSF1A (UniProt P19438)
inactive: erlotinib 0.034 | [14] -0.156 | [6] -0.108 | [9] 0.178 | [10] -0.111 | [15] 0.016 | [11] 0.048 | [13] -0.02

TMTC4 isoform 3 (UniProt Q5T4D3)
inactive: [7] 0.11 | IRAK-1-4 Inhibitor I 0.091 | ibrutinib -0.113 | pinometostat -0.06

TMCC1 (UniProt O94876)
inactive: [1] -0.021 | [14] 0.12 | [2] 0.005 | [3] 0.197 | [4] 0.241 | [15] -0.055

TMEM184C (UniProt Q9NVA4)
inactive: [1] 0.04 | [14] -0.055 | [2] -0.05 | [7] -0.027 | [8] -0.047 | [3] -0.009 | [9] -0.092 | [10] -0.059 | IRAK-1-4 Inhibitor I 0.105 | ibrutinib -0.037 | [4] 0.042 | ralimetinib -0.033 | [15] 0.088 | [12] 0.042 | pinometostat -0.021 | [13] -0.005

TMEM129
inactive: [9] 0.078 | [10] 0.015 | [5] -0.037 | [13] 0.067

TMEM246 (UniProt Q9BRR3)
inactive: erlotinib -0.112 | [6] 0.251 | [11] -0.031

TMEM79 (UniProt Q9BSE2)
inactive: [1] -0.232 | [2] 0.07 | [7] 0.153 | [3] -0.15 | [9] -0.001 | [10] 0.065 | ibrutinib 0.015 | [4] -0.266 | [5] -0.029 | [13] 0.079

TMEM256 (UniProt Q8N2U0)
inactive: erlotinib -0.104 | [6] -0.087 | [11] -0.342

TMCO6 isoform 2 (UniProt Q96DC7)
inactive: erlotinib 0.036 | [6] -0.065 | [11] -0.008

TMEM205 (UniProt Q6UW68)
inactive: erlotinib -0.098 | [14] 0.026 | [6] -0.022 | [7] -0.034 | [8] 0.079 | [9] 0.002 | [10] 0.014 | IRAK-1-4 Inhibitor I 0.05 | ibrutinib 0.001 | ralimetinib -0.067 | [15] -0.14 | [11] 0.024 | [12] -0.124 | pinometostat 0.033 | [5] 0.144 | [13] 0.036

Copied from above (two entries):
TMEM79 (UniProt Q9BSE2)
inactive: [1] -0.232 | [2] 0.07 | [7] 0.153 | [3] -0.15 | [9] -0.001 | [10] 0.065 | ibrutinib 0.015 | [4] -0.266 | [5] -0.029 | [13] 0.079

TMEM256 (UniProt Q8N2U0)
inactive: erlotinib -0.104 | [6] -0.087 | [11] -0.342
